From publication PMC10173541
No constants are given. Whether binding was seen depends on the method and setting. Binding seen in cells or lysates may run through a third protein. A yes stands for co-enrichment or nearness to the bait. Other partners may have been found.

Sequences of proteins named here, by UniProt entry; tags and fusion partners are left off.
UniProt Q8BWG8: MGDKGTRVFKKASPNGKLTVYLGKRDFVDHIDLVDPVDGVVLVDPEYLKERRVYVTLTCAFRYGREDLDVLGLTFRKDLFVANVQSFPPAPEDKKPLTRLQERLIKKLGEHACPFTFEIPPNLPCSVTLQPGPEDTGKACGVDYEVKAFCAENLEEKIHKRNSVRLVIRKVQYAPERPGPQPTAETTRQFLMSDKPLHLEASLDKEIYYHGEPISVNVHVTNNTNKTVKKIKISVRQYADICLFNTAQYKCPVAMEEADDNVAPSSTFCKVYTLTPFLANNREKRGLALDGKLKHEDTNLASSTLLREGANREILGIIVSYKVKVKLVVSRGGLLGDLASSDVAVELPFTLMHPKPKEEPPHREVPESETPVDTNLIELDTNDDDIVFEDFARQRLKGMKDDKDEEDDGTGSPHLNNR
UniProt Q8K1M6: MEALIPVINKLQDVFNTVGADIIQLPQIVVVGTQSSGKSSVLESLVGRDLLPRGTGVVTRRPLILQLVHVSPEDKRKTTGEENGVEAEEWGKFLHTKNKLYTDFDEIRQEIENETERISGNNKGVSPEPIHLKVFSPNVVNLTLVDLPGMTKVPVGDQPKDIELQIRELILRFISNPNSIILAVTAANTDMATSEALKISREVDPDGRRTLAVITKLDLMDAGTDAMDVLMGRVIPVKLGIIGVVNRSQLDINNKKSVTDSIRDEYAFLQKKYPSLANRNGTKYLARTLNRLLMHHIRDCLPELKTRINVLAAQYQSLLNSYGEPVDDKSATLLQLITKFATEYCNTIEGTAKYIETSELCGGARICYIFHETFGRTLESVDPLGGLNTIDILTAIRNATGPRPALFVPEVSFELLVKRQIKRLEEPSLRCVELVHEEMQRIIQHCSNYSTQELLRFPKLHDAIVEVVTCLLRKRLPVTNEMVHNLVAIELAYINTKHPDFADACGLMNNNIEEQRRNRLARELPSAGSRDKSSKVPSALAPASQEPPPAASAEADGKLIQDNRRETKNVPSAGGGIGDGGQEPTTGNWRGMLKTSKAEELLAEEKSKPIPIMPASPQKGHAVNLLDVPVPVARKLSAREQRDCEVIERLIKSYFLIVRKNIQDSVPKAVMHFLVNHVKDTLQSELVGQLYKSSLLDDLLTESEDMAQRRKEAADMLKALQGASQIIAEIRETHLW

Target: β-arrestin1 (mouse (endogenous in primary astrocytes)) (UniProt Q8BWG8)
Assay: affinity purification with mass spectrometry; β-arrestin1 pulled down, bound proteins detected by label-free mass spectrometry; source of the sample not stated

- binding: binds
Substance: dynamin-related protein 1 (Drp1) (from UniProt Q8K1M6 1-736)
